Results taken from publication PMC11707698, “Structure of an ex vivoDrosophila TOM complex determined by single-particle cryoEM” (IUCrJ, 2025).

Molecular target: T1, Drosophila Tom40 subunit fused to a C-terminal FLAG-HA epitope tag (D. melanogaster) (UniProt Q9U4L6)
T1 sequence: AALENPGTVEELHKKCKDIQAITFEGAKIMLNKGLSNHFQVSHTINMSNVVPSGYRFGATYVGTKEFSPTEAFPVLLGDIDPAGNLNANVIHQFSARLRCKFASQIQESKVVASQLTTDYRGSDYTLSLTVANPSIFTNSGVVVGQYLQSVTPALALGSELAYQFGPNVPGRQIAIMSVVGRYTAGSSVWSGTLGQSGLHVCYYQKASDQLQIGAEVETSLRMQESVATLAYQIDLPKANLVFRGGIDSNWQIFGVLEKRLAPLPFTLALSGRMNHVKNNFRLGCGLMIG
Test: cryo-EM structure; single-particle cryoEM of the TOM core complex assembled in the fly retina, FLAG-purified as a whole and reconstituted into non-ionic amphipol; graphene-coated grids; C2 symmetry; 3.3 Å

With “Tom7 (endogenous Drosophila TOM subunit)” the binding was “binds”.

No constants are given. Whether binding was seen depends on the method and setting. A result given as binding can be weak or reduced; the word gives no strength. Where a sequence is shown, tags or fusion partners need not be part of it.
